Patent publication US20160207996A1 (ARGEN X N V, published 2016)
Residue numbers refer to the chain shown, from its start. These are yes or no findings as the source states them, for the method shown. Values belong to the binder of their own block, whether it stands above or below them.

Legend:
CXCR4 [1] = experiment: mAb binding ELISA, lipoparticles coated at 10 U/well, A450 [upper chart]
CXCR4 [2] = experiment: mAb binding ELISA, lipoparticles coated at 10 U/well, A450 [lower chart]

B2: mAb 6D8 (antibody, IgG1, V domains shown)
VH: QLQLVESGGGLVQPGGSLRLSCAASGFTFSSNAMTWVRQAPGKGLEWVSAISSTGNSITEADSVKGRFTISRDNAKNMLYLQMNSLKPEDTAVYYCAKLGGDTWYMEYWGQGTQVTVSS
VL: SYELTQSPSVSVALRQTAKITCGGNGIGSKIVHWYQQKPGQAPVLVIYADVRRPSEIPERFSGSNSGDTATLTVSGAQAEDEADYYCQVWDSSANAAVFGGGTHLTVLG
- binding (CXCR4 [2]): no binding (tested: 1 µg/ml)

B3: mAb 6B7 (antibody, IgG1, V domains shown)
VH: B2 VH
VL: SSALTQPSAVSVSLGQTARITCQGDNFGSIDPHWYQQKPGQDPVVVIYQYNNRPSGIPERFSGLKSGNTATLIISGAQAEDEADYYCQLWDSRAKAVFGGGTHLTVLG
- binding (CXCR4 [2]): no binding (tested: 1 µg/ml)

B4: mAb 6B3 (antibody, IgG1, V domains shown)
VH: QLQVVESGGGLVQPGGSLRLSCAASGFTFSTYVMSWVRQAPGKGLEWVSGINSGGGSTSYADSVKGRFTISRDNAKNTLYLQMNSLKPEDTAVYYCAKVGDGSAWYYYYGMDYWGQGTQVTVSS
VL: SSALTQPSAVSVSLGQTARITCQGGNLDGYYHAWYQQKPGQAPVQVIFGNNNRPSGIPERFSGSSSGGTTTLTISGAQAEDEADYYCQSYENSGYNIVFGGGTHLTVLG
- binding (CXCR4 [1]): no binding (tested: 1 µg/ml)

Continued, values first:

- binding (CXCR4 [1]): no binding (tested: 1 µg/ml)
B1: mAb 6A1 (antibody, IgG1, V domains shown)
VH: B2 VH with Q1E, L2V, S31R
VL: SYELTQSPSMSVALRQTAKITCGGNNIGSKSAQWYQQKPGQAPVLVIYADNRRPSGIPERFSGSNSGNTATLTISGAQAEDEADYYCQVWDSSANAVFGRGTHLTVLG

- binding (CXCR4 [1]): no binding (tested: 1 µg/ml)
B5: mAb 6A5 (antibody, IgG1, V domains shown)
VH: EVQLQESGGGSVQPGGSLRLSCAASGFTFSANAMTWVRQAPGKGLEWVSAISGTGASTSYADSVKGRFTVSRDNAKNTLYLQVNNLKPEDTAVYRCAKLGGDTWYMEYWAKGTLVTVSS
VL: SYELTQSPSVSVALRQTAKITCGGDNIGSKYVNWYQQKPSQTPVLVIYKDSNRPSGIPERFSGSNSGNTAALTISGAQAEDEADYYCQVWDGSAAVFGGGTHLSVLG
